Test results reported in article PMC6939906, “Leucine zipper transcription factor-like 1 binds adaptor protein complex-1 and 2 and participates in trafficking of transferrin receptor 1” (PLoS ONE, 2020).
Results are given in words; binding and its absence hold for the method and conditions named. Tags and fused reporters may be left off the sequences shown.

Biological target: T1, MBP-LZTFL1 (maltose-binding protein fused with human LZTFL1) (human) (UniProt Q9NQ48)
T1 sequence: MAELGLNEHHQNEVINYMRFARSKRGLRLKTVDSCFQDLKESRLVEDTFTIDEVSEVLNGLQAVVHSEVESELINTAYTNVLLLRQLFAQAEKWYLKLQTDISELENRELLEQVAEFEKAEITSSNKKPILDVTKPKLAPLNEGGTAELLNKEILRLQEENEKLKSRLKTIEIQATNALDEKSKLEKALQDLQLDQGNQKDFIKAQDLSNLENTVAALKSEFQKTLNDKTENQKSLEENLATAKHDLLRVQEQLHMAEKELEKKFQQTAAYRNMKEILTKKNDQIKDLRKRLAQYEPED
Assay: pull-down; MBP-fused proteins held on amylose resin, purified GST-fused proteins added, overnight at 4°C; blots with anti-MBP and anti-GST; both purified

binding	Substance
no binding	GST-σ1 (GST-fused σ1 subunit of AP-1) (human)
no binding	GST-μ1 (GST-fused μ1 subunit of AP-1) (human)
